For some assays here: At least one compound was matched to its structure with a doubt left. Some of these results come from one statement about several compounds together.
Columns and labels:
Type in all cases: cell-based
[1] = test system: Wnt induced calcium release; assay: Wnt induced [Ca2+]i release after preincubation with thapsigargin or membrane potential regulating compounds; settings: preincubation 5 min; Wnt 9B 0.1 μg/ml as example; CsCl 5 mM; CdCl2 1 mM; TEA 10 mM; Amiodarone 75 μM; Tolbutamide 1 mM; Isradipine 100 μM; Nifedipine 1 mM; Minoxidil 25 μM; Atenolol 37.5 μM; Propanolol 50 μM; Furosemide 150 μM
Method: The imaging protocol was developed in the inventor's laboratory and has been described in detail, elsewhere (Wang at al., (2010) PLoS ONE 5, e10456). Briefly, 100000-200000 PC3, MCF7, 253J or Cos 7 cells were plated on 35 mm FluoroDish (WPI) and grown for 48 h; calcium indicators Fluo-4 (Invitrogen) and FuraRed (Invitrogen) at 1 ng/ml were added to FluoroDish containing only 1 ml of culture medium and incubated for 15-20 min at 37° C. The culture medium was removed and washed (×2) and replaced with 1 ml PBS. Live cell calcium Imaging was performed on an Olympus FluoView FV 1000 confocal microscope (Olympus KeyMed) equipped with a 20× dry objective (numerical aperture=0.75). Calcium indicators were excited with an argon laser line (488 nm) and emissions recorded in the green channel (500-560 nm) for Fluo-4 and red channel (600-700 nm) for FuraRed after addition of vehicle control (PBS) or Wnt X (30-600 ng/ml). Images were acquired every 1.1 or 2.2 seconds for up to 600-800s; image and data acquisition was performed using FluoView 1000 software (Olympus, UK). Fluorescent intensity was measured and data exported as a tab delimited file for further analysis using a spreadsheet. All imaging experiments were performed in duplicate; intracellular calcium at 100 ng/ml was measured in at least 3-12 different passages (passage numbers 25 to 37) of cell line for each Wnt ligand. […]

[2] = test system: PC3 prostate cancer cell line; assay: Cell proliferation assay, live imaging (Incucyte), PC3; settings: PC3 cells, inhibitors at 0-15 mM
Method: Growth curve was monitored at 37° C. in a CO2 incubator by using time lapse imaging with Incucyte (Essen Biosciences) for up to 150 h after plating the cells (t=o) at a density of 25-100 k cells per well in a 6 well plate (Nunc). MPRCs were added at the stated concentrations 24 h after cell plating;
A live imaging system (Incucyte, EssenBiosciences) was used to measure the effect of K^+ channel inhibitors on the rate of cell proliferation. PC3 cells were plated on 6 well plates (Nunc) in 3 ml culture medium (Wang et al (2010) PLoS ONE 5, e10456); K^+ channel inhibitors were added to the wells at 0-15 mM. The plates were placed in Incucyte in a standard cell culture incubator at 37° C. and CO2. Each well was imaged at an interval of up to 4 h and rate of cell proliferation was calculated from these images using Incucyte software.

[3] = test system: PC3 prostate cancer cell line; assay: Live [Ca2+]i imaging (Fluo4/FuraRed ratio) after addition of Wnt ligand; settings: PC3 cells; for dwell time (DT) of [Ca2+]i release: Wnt peptide 100 ng/ml
Method: The imaging protocol was developed in the inventor's laboratory and has been described in detail, elsewhere (Wang at al., (2010) PLoS ONE 5, e10456). Briefly, 100000-200000 PC3, MCF7, 253J or Cos 7 cells were plated on 35 mm FluoroDish (WPI) and grown for 48 h; calcium indicators Fluo-4 (Invitrogen) and FuraRed (Invitrogen) at 1 ng/ml were added to FluoroDish containing only 1 ml of culture medium and incubated for 15-20 min at 37° C. The culture medium was removed and washed (×2) and replaced with 1 ml PBS. Live cell calcium Imaging was performed on an Olympus FluoView FV 1000 confocal microscope (Olympus KeyMed) equipped with a 20× dry objective (numerical aperture=0.75). Calcium indicators were excited with an argon laser line (488 nm) and emissions recorded in the green channel (500-560 nm) for Fluo-4 and red channel (600-700 nm) for FuraRed after addition of vehicle control (PBS) or Wnt X (30-600 ng/ml). Images were acquired every 1.1 or 2.2 seconds for up to 600-800s; image and data acquisition was performed using FluoView 1000 software (Olympus, UK). Fluorescent intensity was measured and data exported as a tab delimited file for further analysis using a spreadsheet. All imaging experiments were performed in duplicate; intracellular calcium at 100 ng/ml was measured in at least 3-12 different passages (passage numbers 25 to 37) of cell line for each Wnt ligand. Wnt 11 was tested in at least 5 different passages at 3 different concentrations. To test if the Wnt activated calcium release was from [Ca^2+]i stores, in some cases PC3 cells, loaded with calcium dyes, were incubated with 1-5 μM of thapsigargin (Sigma, UK), resuspended in dimethyl sulfoxide (DMSO), for 20 min at 37° C., prior to addition of Wnt ligand and live calcium imaging (as described above).
The experiments were performed using 35 mm, glass bottom, FluoroDish containing 1 ml PBS, at 37° C., to which ligands were added at desired concentration. In a static, non-superfusing assay system there is a lag time before the start of a response, in this case an increase in the intensity of the Fluo4 signal due to the release of free calcium. To measure the diffusion constant under these conditions we used Pontamine Sky Blue (Sigma Aldridge), which fluoresces in the red spectrum with 488 nm excitation, using standard practice for adding ligands; the diffusion constant was measured to be 23.3±2.1 μm·s^−1 (means±S.E.M, n=8). The calcium wave, in response to Wnt ligands, travelled across the FluoroDish.
After image acquisition, regions of interest (ROI) were drawn over individual PC3 cells (up to 25) in a single frame and calcium intensity measurements were made using FluoView 1000 software (Olympus, UK). The measurements were exported as a tab delimited file into a spreadsheet for further analysis and Fluo4/Fura Red ratios were calculated. The waveform, a product of the ratio of Fluo4 and FuraRed over the period of measurement was used to measure the kinetics of the activation of [Ca^2+]i release in PC3 cells, in response to different Wnt ligands. The time constants (rise, dwell and fall times) were calculated by first fitting the Fluo4/FuraRed ratio to a single Gaussian function (Origin Lab Corp., MA); a lower (10%) and upper (90%) amplitude thresholding method was then used to calculate the time constants (s). Statistical significance was calculated using Mann Whitney U test.

## Nc1cc(N2CCCCC2)nc(N)[n+]1[O-] [Minoxidil]
[1]
  Wnt ligand induced calcium release after preincubation with MPRC (FIG. 16): inhibited

## COC(=O)C1=C(C)NC(C)=C(C(=O)OC)C1c1ccccc1[N+](=O)[O-] [Nifedipine]
[2]
  rate of cell proliferation (confluence of cell growth, FIG. 12): inhibit proliferation

## Wnt10B: Recombinant Wnt peptide purchased from R&D systems
[3]
  class by dwell time (DT) of the calcium waveform: long (long (DT>25s))
  dwell time (DT) of [Ca2+]i release: > 25 s

B1: Wnt3A: Recombinant Wnt peptide purchased from R&D systems (protein, UniProt P56704 19-352, looked up)
Protein Wnt-3a: SYPIWWSLAVGPQYSSLGSQPILCASIPGLVPKQLRFCRNYVEIMPSVAEGIKIGIQECQHQFRGRRWNCTTVHDSLAIFGPVLDKATRESAFVHAIASAGVAFAVTRSCAEGTAAICGCSSRHQGSPGKGWKWGGCSEDIEFGGMVSREFADARENRPDARSAMNRHNNEAGRQAIASHMHLKCKCHGLSGSCEVKTCWWSQPDFRAIGDFLKDKYDSASEMVVEKHRESRGWVETLRPRYTYFKVPTERDLVYYEASPNFCEPNPETGSFGTRDRTCNVSSHGIDGCDLLCCGRGHNARAERRREKCRCVFHWCCYVSCQECTRVYDVHTCK
[3]
  class by dwell time (DT) of the calcium waveform: short (short (DT<15s))
  dwell time (DT) of [Ca2+]i release: < 15 s

B2: Wnt5A: Recombinant Wnt peptide purchased from R&D systems (protein, UniProt P41221 62-380, looked up)
Protein Wnt-5a: IIGAQPLCSQLAGLSQGQKKLCHLYQDHMQYIGEGAKTGIKECQYQFRHRRWNCSTVDNTSVFGRVMQIGSRETAFTYAVSAAGVVNAMSRACREGELSTCGCSRAARPKDLPRDWLWGGCGDNIDYGYRFAKEFVDARERERIHAKGSYESARILMNLHNNEAGRRTVYNLADVACKCHGVSGSCSLKTCWLQLADFRKVGDALKEKYDSAAAMRLNSRGKLVQVNSRFNSPTTQDLVYIDPSPDYCVRNESTGSLGTQGRLCNKTSEGMDGCELMCCGRGYDQFKTVQTERCHCKFHWCCYVKCKKCTEIVDQFVCK
[3]
  class by dwell time (DT) of the calcium waveform: short (short (DT<15s))
  dwell time (DT) of [Ca2+]i release: < 15 s

B3: Wnt7A: Recombinant Wnt peptide purchased from R&D systems (protein, UniProt O00755 32-349, looked up)
Protein Wnt-7a: LGASIICNKIPGLAPRQRAICQSRPDAIIVIGEGSQMGLDECQFQFRNGRWNCSALGERTVFGKELKVGSREAAFTYAIIAAGVAHAITAACTQGNLSDCGCDKEKQGQYHRDEGWKWGGCSADIRYGIGFAKVFVDAREIKQNARTLMNLHNNEAGRKILEENMKLECKCHGVSGSCTTKTCWTTLPQFRELGYVLKDKYNEAVHVEPVRASRNKRPTFLKIKKPLSYRKPMDTDLVYIEKSPNYCEEDPVTGSVGTQGRACNKTAPQASGCDLMCCGRGYNTHQYARVWQCNCKFHWCCYVKCNTCSERTEMYTCK
[3]
  class by dwell time (DT) of the calcium waveform: long (long (DT>25s))
  dwell time (DT) of [Ca2+]i release: > 25 s

B4: Wnt4: Recombinant Wnt peptide purchased from R&D systems (protein, UniProt P56705 23-351, looked up)
Protein Wnt-4: SNWLYLAKLSSVGSISEEETCEKLKGLIQRQVQMCKRNLEVMDSVRRGAQLAIEECQYQFRNRRWNCSTLDSLPVFGKVVTQGTREAAFVYAISSAGVAFAVTRACSSGELEKCGCDRTVHGVSPQGFQWSGCSDNIAYGVAFSQSFVDVRERSKGASSSRALMNLHNNEAGRKAILTHMRVECKCHGVSGSCEVKTCWRAVPPFRQVGHALKEKFDGATEVEPRRVGSSRALVPRNAQFKPHTDEDLVYLEPSPDFCEQDMRSGVLGTRGRTCNKTSKAIDGCELLCCGRGFHTAQVELAERCSCKFHWCCFVKCRQCQRLVELHTCR
[3]
  class by dwell time (DT) of the calcium waveform: very long (very long (DT>30s))
  dwell time (DT) of [Ca2+]i release: > 30 s

B5: Wnt9B: Recombinant Wnt peptide purchased from R&D systems (protein, UniProt O14905 23-357, looked up)
Protein Wnt-9b: SYFGLTGREVLTPFPGLGTAAAPAQGGAHLKQCDLLKLSRRQKQLCRREPGLAETLRDAAHLGLLECQFQFRHERWNCSLEGRMGLLKRGFKETAFLYAVSSAALTHTLARACSAGRMERCTCDDSPGLESRQAWQWGVCGDNLKYSTKFLSNFLGSKRGNKDLRARADAHNTHVGIKAVKSGLRTTCKCHGVSGSCAVRTCWKQLSPFRETGQVLKLRYDSAVKVSSATNEALGRLELWAPARQGSLTKGLAPRSGDLVYMEDSPSFCRPSKYSPGTAGRVCSREASCSSLCCGRGYDTQSRLVAFSCHCQVQWCCYVECQQCVQEELVYTCKH
[3]
  class by dwell time (DT) of the calcium waveform: very long (very long (DT>30s))
  dwell time (DT) of [Ca2+]i release: > 30 s

— patent US20160271157A1, “BETA-CATENIN” (UCL BUSINESS PLC, priority 2013, published 2016)
